One assay addresses GST-AKT1 (UniProt P31749). Description: pull-down; GST-AKT1 immobilised on Glutathione-Sepharose 4B beads, incubated with purified zEtv2-(236-345) or zScl (GST cleaved by thrombin) at 4°C for 3 h; SDS-PAGE, Coomassie Blue staining; both purified.
Another assay has as its target Flag-tagged AKT1 (UniProt P31749). The assay is described as follows: co-IP; HEK293T cells transfected with the indicated plasmids; lysates (TNE or RIPA buffer) incubated with anti-Flag-agarose beads at 4°C for 4 h; western blot.
The target in assay [1] is Flag-AKT1 expressed in zebrafish embryos from injected mRNA (UniProt P31749). The assay is described as follows: co-IP; wild-type zebrafish embryos injected with 200 pg Flag-AKT1 mRNA at the one-cell stage; immunoprecipitation with anti-Flag antibody; endogenous zEtv2 and zScl detected.

By UniProt entry, the sequences of proteins in these tests, tags left out.
UniProt P31749: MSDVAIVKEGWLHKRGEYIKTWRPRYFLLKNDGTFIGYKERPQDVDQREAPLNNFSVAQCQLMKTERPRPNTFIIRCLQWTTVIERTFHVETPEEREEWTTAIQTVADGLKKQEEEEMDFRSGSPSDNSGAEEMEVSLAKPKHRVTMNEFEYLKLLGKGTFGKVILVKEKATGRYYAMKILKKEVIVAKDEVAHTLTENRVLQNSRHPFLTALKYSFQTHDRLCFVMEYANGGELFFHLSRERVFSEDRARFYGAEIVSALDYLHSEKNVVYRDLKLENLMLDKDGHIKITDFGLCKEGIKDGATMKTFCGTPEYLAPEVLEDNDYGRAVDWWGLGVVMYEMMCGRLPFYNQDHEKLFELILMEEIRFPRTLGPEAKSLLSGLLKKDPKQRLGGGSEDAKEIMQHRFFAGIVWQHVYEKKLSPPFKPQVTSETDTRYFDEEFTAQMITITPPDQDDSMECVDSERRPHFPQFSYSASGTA
UniProt O93507: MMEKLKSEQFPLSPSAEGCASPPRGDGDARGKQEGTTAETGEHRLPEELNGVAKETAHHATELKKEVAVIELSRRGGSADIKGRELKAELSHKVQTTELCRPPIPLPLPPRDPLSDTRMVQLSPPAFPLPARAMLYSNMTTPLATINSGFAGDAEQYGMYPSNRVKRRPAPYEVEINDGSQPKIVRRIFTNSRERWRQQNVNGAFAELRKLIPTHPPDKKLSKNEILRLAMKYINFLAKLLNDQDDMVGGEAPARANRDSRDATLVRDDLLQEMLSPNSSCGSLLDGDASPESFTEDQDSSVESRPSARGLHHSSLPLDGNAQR

No constants are given. Whether binding was seen depends on the method and setting. For part of these data: In cells and extracts the contact can be indirect. Some binding calls cover weakened binding; strength is not graded here.

In the case of “zScl purified from E. coli (GST tag cleaved) (from UniProt O93507 1-324)”, the binding result with GST-AKT1 is on record as “binds”. In the case of “zebrafish Scl (zScl), overexpressed in HEK293T cells (from UniProt O93507 1-324)”, the binding result with Flag-tagged AKT1 is given as “binds”. Turning to “endogenous zebrafish Scl (zScl) (from UniProt O93507 1-324)”, the binding result in assay [1] is on record as “binds”.

The record behind these values is paper PMC10114070.
